Measurements published in publication PMC11876313.
No constants are given. Whether binding was seen depends on the method and setting. Binding seen in cells or lysates may run through a third protein. Some results given as binding are weak or reduced against the parent protein; the word gives no strength. For some assays here: Where a sequence is shown, tags or fusion partners need not be part of it.

The chains behind the UniProt entries cited, without tags or fusion partners.
UniProt Q61188: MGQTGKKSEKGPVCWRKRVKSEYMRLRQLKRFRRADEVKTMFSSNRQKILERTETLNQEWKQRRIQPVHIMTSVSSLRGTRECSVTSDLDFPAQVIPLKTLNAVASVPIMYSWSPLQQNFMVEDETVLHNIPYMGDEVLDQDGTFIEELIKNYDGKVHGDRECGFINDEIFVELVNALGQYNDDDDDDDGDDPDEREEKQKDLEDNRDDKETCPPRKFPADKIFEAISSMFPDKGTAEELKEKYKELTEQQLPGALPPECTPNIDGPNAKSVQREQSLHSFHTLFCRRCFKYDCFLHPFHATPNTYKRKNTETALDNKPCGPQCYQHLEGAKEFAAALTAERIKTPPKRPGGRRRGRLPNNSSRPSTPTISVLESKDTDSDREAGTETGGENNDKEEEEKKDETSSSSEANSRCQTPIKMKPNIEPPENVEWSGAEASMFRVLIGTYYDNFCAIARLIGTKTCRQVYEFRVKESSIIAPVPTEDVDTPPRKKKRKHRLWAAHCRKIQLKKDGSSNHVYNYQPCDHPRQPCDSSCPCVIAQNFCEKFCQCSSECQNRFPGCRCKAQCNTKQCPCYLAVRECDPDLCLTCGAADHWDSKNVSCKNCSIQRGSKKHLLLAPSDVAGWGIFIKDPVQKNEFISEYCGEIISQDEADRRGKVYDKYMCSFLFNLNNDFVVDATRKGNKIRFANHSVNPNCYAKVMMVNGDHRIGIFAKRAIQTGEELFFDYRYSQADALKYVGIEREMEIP
UniProt Q80U70: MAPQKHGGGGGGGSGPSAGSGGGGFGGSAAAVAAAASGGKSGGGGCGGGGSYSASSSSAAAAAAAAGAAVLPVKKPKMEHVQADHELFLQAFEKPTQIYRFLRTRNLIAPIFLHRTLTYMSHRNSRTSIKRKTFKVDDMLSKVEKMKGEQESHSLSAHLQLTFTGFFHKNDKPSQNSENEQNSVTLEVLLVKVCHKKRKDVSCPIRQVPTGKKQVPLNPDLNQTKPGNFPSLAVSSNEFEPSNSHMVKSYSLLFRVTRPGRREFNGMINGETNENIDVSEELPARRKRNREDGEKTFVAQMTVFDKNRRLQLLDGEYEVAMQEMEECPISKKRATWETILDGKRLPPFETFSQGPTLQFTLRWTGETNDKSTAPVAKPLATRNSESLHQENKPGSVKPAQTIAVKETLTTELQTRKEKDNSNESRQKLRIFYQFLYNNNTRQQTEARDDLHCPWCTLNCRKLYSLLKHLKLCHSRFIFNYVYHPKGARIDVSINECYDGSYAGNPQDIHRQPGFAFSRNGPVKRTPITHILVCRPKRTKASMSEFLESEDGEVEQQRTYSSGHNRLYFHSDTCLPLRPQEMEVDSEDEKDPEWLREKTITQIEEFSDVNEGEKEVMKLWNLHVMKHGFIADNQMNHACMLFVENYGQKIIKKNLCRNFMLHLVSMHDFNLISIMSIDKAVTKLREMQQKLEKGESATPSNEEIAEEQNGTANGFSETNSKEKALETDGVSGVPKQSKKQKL

What was measured:
[1] = molecular target: T1, AUTS2 (endogenous, embryonic mouse cerebral cortex) (mouse (endogenous in embryonic cerebral cortex)); assay: proximity ligation; Duolink PLA with rabbit anti-AUTS2 and mouse anti-EZH2 in fixed, permeabilised sorted EGFP+ cells from E15.5 Eomes T2A-d2EGFP/+ cortices; control: a single antibody
T1 sequence: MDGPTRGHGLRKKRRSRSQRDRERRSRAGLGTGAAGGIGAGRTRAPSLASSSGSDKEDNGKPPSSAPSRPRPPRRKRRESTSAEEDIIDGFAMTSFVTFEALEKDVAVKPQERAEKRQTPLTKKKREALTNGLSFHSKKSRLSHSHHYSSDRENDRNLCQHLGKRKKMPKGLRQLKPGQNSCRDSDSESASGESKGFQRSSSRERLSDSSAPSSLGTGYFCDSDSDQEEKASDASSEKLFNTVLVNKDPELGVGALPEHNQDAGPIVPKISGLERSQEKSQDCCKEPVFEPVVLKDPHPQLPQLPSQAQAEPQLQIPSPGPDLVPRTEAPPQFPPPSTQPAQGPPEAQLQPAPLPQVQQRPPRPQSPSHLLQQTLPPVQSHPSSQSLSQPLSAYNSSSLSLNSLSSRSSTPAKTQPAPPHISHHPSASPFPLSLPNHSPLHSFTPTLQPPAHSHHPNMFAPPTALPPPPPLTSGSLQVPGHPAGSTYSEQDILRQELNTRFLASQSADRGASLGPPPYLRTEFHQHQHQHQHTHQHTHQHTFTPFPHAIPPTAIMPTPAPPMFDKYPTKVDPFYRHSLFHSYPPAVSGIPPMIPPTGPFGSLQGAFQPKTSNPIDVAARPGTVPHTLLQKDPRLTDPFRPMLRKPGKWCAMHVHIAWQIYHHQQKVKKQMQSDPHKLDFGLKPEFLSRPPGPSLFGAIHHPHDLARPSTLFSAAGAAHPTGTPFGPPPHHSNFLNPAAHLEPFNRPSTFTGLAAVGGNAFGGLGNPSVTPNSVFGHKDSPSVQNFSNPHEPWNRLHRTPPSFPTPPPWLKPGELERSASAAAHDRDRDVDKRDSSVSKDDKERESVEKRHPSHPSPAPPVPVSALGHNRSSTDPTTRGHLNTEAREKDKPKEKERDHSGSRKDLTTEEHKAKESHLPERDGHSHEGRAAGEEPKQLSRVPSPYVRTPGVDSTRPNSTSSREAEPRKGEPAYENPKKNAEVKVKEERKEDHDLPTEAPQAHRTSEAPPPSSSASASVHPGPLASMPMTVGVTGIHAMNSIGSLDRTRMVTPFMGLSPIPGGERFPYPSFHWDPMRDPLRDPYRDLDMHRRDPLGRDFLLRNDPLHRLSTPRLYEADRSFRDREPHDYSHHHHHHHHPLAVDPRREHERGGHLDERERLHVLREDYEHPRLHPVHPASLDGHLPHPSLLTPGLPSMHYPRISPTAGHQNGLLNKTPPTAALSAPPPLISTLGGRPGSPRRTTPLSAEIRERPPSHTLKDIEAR

[2] = molecular target: T1, AUTS2 (endogenous, embryonic mouse cerebral cortex) (mouse (endogenous in embryonic cerebral cortex)); assay: co-IP; nuclear lysates of E14.5 mouse cerebral cortices (lysis buffer 50 mM Tris-HCl pH 7.5, 125 mM NaCl, 1 mM EDTA, 5% glycerol, 0.5% NP-40, RNaseA; sonicated); rabbit anti-AUTS2 or rabbit control IgG on Dynabeads protein G, 4 h at 4 °C; Western blot with anti-EZH2, anti-SUZ12, anti-AUTS2
[3] = molecular target: T2, 3xFlag-tagged FL-AUTS2 (mouse); assay: co-IP; nuclear lysates of transfected Neuro2a cells (lysis buffer 50 mM Tris-HCl pH 7.5, 125 mM NaCl, 1 mM EDTA, 5% glycerol, 0.5% NP-40, RNaseA; sonicated); mouse anti-FLAG on Dynabeads protein G, 4 h at 4 °C; Western blot with anti-EZH2, anti-SUZ12, anti-FLAG; mock: 3xFlag empty vector
T2 sequence: T1 sequence

Row | binding [1] | binding [2] | binding [3] | Substance
1 | binds | binds | – | EZH2 (endogenous, embryonic mouse cerebral cortex) (from UniProt Q61188 1-746)
2 | – | – | binds | EZH2 (endogenous, Neuro2a) (from UniProt Q61188 1-746)
3 | – | binds | – | SUZ12 (endogenous, embryonic mouse cerebral cortex) (from UniProt Q80U70 1-741)
4 | – | – | binds | SUZ12 (endogenous, Neuro2a) (from UniProt Q80U70 1-741)
